From PubChem BioAssay record AID1159506 (NCATS, 2015).

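Genome-wide siRNA knockdown in TC32 Ewing sarcoma cells, comparing luciferase light from an NR0B1-promoter reporter with a CMV-promoter reporter 48 hours after transfection.
Each siRNA was applied at 20 nM.
A z-score of the log NR0B1-over-CMV signal, less the median of siRNAs with the same seed; more negative means a stronger specific loss of the NR0B1 reporter.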

This is part of the screen; most of the strongest results are not listed here.
Sequences are the guide (antisense) strand, without overhang.

| siRNA | gene | seed-corrected z-score |
|---|---|---|
| `UGAGAUAUGAUGAGCCUCG` | RAVER2 | -0.2689 |
| `UGGUUAAAAAGGGUUGAGG` | ZNF736 | -0.3913 |
| `UUCAUAACCAGGUCGUUGG` | FBP1 | -1.199 |
| `UCCAUGAUCAUAUCCACAC` | POT1 | -0.6446 |
| `AGCUGCACAACCUCCAUCC` | ITPK1 | 1.132 |
| `UGCUGAAUCAACUGAAUCG` | SUPT7L | 0.7828 |
| `UUGACUAUAGGAAUCAUGC` | TAF15 | -1.424 |
| `UGAACUACUAGUUGGAUUG` | SP4 | 0.2023 |
| `UACGCAUAAGGAUUAUAGC` | PDCD6IP | -0.13 |
| `UCCACUUCAGGUUUCGCUG` | MRPL18 | 0.2909 |
| `UUCAAUCACAGAAUCAAGC` | AK2 | -0.2561 |
| `AAAUCUUUGAGUCUCCUGC` | DDO | 0.9454 |
| `UUAACGGUCAGCUGUUUCC` | CD40LG | -0.1281 |
| `UUCUCGUCCAUAUAGCUGU` | FLI1 | -0.5134 |
| `UAGUCGAAACUGUCCGGGC` | RASL10A | -0.4895 |
| `UAAGUGGACCUCCCUGUUU` | PRR16 | -0.03333 |
| `UUCCGAGUGAAAGUCAUGG` | KIAA0100 | -0.258 |
| `AAUGAGGUGACCUACAUGC` | WARS | -1.185 |
| `AAUUAUAAACGCACCACUG` | CTNNBIP1 | 0.735 |
| `ACAGAUACCUCUAUACUGC` | FUBP3 | 0.1108 |
| `UUUGAGUCCACAUCAAAAA` | USP18 | -0.0947 |
| `UGUGGGCACAGGUGAUAGG` | DISP2 | -0.3164 |
| `UGCUAUGUUAGUUAAUGCC` | KPNA3 | -1.289 |
| `UUACUCGCACGUAAGUUGG` | LRRC6 | 0.6322 |
| `AUCCCGGUAAUAAACAUCC` | RPN1 | -0.1443 |
| `UUGUCAAUGUCUAGGAUGC` | TIMM44 | -1.028 |
| `AACUUAAAGGGCUUGUUUC` | FKBP1A | 0.2658 |
| `UGCACGUUCAUUUCGAAAC` | ACACA | -0.4472 |
| `UAGUGGAAGCUCCUCUUGC` | UCN3 | -0.2644 |
| `AUAGUUGGCUCCUCGCUGG` | IFI27 | 0.06524 |
| `AUUGAUACUGUUAGGAACG` | HCFC2 | 0.1327 |
| `UCCAGUUCCACCAGAAUCU` | MSS51 | 0.1274 |
| `AUACUGGUAAGUGAAGCUC` | ELP6 | 0.1661 |
| `UUCGCAGCCCUAGUUGUCC` | CCR10 | -0.1716 |
| `UAUCAGAUACUGUAAUAGC` | ANKRD31 | 1.69 |
| `UUUGAUAAUUUUUCCGAUC` | CCDC7 | 1.443 |
| `AAGGGUAUCUGUGCAAGUG` | COLEC12 | -0.1508 |
| `AUCCUUAUAAGGGUGCAGC` | ACPP | 0.4495 |
| `UGGAAUUAUAGGAUUGUUG` | UBE2Q2 | 0.6957 |
| `UGUGCUUACUCUCAGGUCC` | ZDHHC8 | 0.07782 |
| `UCUUUGACUAAGCUGUCGG` | BZW2 | -0.7006 |
| `AACAGGACCAAGAUGCUGA` | CALCA | -1.275 |
| `UAACCGAUCUUUCAUGAAC` | CDC14A | -0.1328 |
| `UUUUAUGAUUGUCUUCUCC` | RILPL2 | 0.8085 |
| `UUGGAAAUCGGAAUUCUUG` | GNGT2 | 0.3547 |
| `UAUGUUCUGAGUUCUUACC` | PLEKHA8 | 0.2391 |
| `UUUAGCUCUCGAACUUUCC` | MFAP1 | -0.1294 |
| `UCUGAUAUGGGAUCAUUAC` | CYLC1 | -0.4592 |
| `UACUGAGCAAGUCUCUUCC` | MLF1 | 0.1712 |
| `AGAGGAAGUAGCAUGGAGC` | LOC729164 | 0.6935 |
| `UGAAUUAGCGUGUCGCUCC` | SSH2 | -0.3661 |
| `UUCAUUUGCGACUUCGUUC` | MUC12 | 0.5969 |
| `UACUAGUACUUAUAGAAGC` | MTO1 | -0.1153 |
| `UAUAGAACUCGUUUAACAC` | FAM177B | -1.155 |
| `GGCUUAAACCAGGUCAGCC` | LOC339192 | -0.1472 |
| `UCAGCAACAUCUCUCUUCA` | LOC648570 | -0.5724 |
| `UUCCAUUUAUUUUGUCUCU` | HLA-A | 0.5808 |
| `AUGAGUUAAACAGGCAUGG` | LOC642947 | 0.3852 |
| `UUCUUGUCAGCAACCGUCA` | C1orf94 | 0.3917 |
| `UACUCCUUGAAUUAAGCCG` | MFSD14A | 0.07114 |
| `UUAAAGCGCAUUUUCUUGC` | EFCAB12 | -0.03237 |
| `AUAUUUUUAAACGAGACAC` | SH2D1B | -0.7169 |

For reference, 6 entries once more:

| siRNA | gene | seed-corrected z-score |
|---|---|---|
| `UUCAUUUGCGACUUCGUUC` | MUC12 | 0.5969 |
| `UGCACGUUCAUUUCGAAAC` | ACACA | -0.4472 |
| `AACAGGACCAAGAUGCUGA` | CALCA | -1.275 |
| `UCCAUGAUCAUAUCCACAC` | POT1 | -0.6446 |
| `UAAGUGGACCUCCCUGUUU` | PRR16 | -0.03333 |
| `UUUGAGUCCACAUCAAAAA` | USP18 | -0.0947 |